Source: paper PMC10797486
No constants are given. Whether binding was seen depends on the method and setting. Some entries that bind do so weakly or less than the wild type.

Molecular target: POPEYE (PYE) (Arabidopsis thaliana) (UniProt Q9SN74)
Assay: two-hybrid; yeast two-hybrid (Clontech), GAL4 BD baits and GAL4 AD preys; co-transformed yeast spotted in a 10-fold dilution series; growth on SD-W/L and SD-W/L/H/A

- binding: binds
B1: POPEYE (PYE) (protein, UniProt Q9SN74 1-240)
chain: MVSKTPSTSSDEANATADERCRKGKVPKRINKAVRERLKREHLNELFIELADTLELNQQNSGKASILCEATRFLKDVFGQIESLRKEHASLLSESSYVTTEKNELKEETSVLETEISKLQNEIEARANQSKPDLNTSPAPEYHHHHYQQQHPERVSQFPGLPIFQGPGFQQSATTLHPPATVLVLPIQPDPQTQDISEMTQAQQPLMFNSSNVSKPCPRYASAADSWSSRLLGERLKASE
